Values from PubChem BioAssay AID652243 (Drosophila RNAi Screening Center, 2013)

Assay: 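Knock-downs that decrease or increase androgen receptor reporter signal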 (primary screen)
Cell system: Drosophila S2R+ cells
Reagent: long dsRNA against Drosophila genes
Duration: 72 h (48 h, then 24 h hormone)
Challenge: synthetic androgen R1881 at 10 nM for 24 h
Detection: 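Firefly light from an androgen-responsive reporter and Renilla control light per well, raw and unnormalised, for each of two replicates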
Scale: firefly reporter light: higher = more light from androgen-responsive reporter; Renilla control light: higher = more constitutive control signal (cell number, transfection)
Call rule: 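Across duplicate plates, a knock-down whose log firefly/Renilla ratio shifted a set fold down or up from the GFP/LacZ control mean was a hit; the downward cut appears as both 1.5 and 3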
Calls: active = hit: reporter lowered or raised; inactive = no hit
In all, the deposit lists about 24,000 reagents; below is a random part of those with a known target gene and a result. In the full data, 246 (1%) got an active call. 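Plates not normalised; calls are printed but the firefly/Renilla ratio behind them is not deposited; fold cut for lowering reported inconsistently.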 The raw values are shown without normalisation. Not stated in the record: the amount of reagent.

| target gene | dsRNA | firefly reporter light, replicate 1 | firefly reporter light, replicate 2 | Renilla control light, replicate 1 | Renilla control light, replicate 2 | Call |
| --- | --- | --- | --- | --- | --- | --- |
| nmdyn-D7 (GeneID 41174) | DRSC17016 | 1.46e5 | 1.23e5 | 2.15e6 | 2.34e6 | inactive |
| nmdyn-D7 (GeneID 41174) | DRSC36803 | – | – | – | – | inactive |
| MstProx (GeneID 40890) | DRSC12458 | 2.12e5 | 2.18e5 | 4.45e5 | 4.53e5 | inactive |
| MstProx (GeneID 40890) | DRSC12601 | 39129 | 51931 | 1.53e6 | 1.00e6 | inactive |
| CG31055 (GeneID 318574) | DRSC13832 | 2.12e5 | 1.77e5 | 3.46e5 | 4.50e5 | inactive |
| blp (GeneID 41937) | DRSC15757 | 1.36e5 | 1.62e5 | 2.51e6 | 2.96e6 | inactive |
| blp (GeneID 41937) | DRSC28887 | 4.21e5 | 3.41e5 | 9.32e5 | 1.15e6 | inactive |
| Lcp2 (GeneID 35818) | DRSC07456 | 3.61e5 | 3.96e5 | 2.25e6 | 1.87e6 | inactive |
| Odc1 (GeneID 35766) | DRSC07482 | 1.12e6 | 2.96e5 | 1.83e6 | 8.32e5 | inactive |
| Odc1 (GeneID 35766) | DRSC29610 | 2.53e5 | 4.26e5 | 7.78e5 | 7.78e5 | inactive |
| Clamp (GeneID 35445) | DRSC03718 | 1.16e6 | 1.13e6 | 2.03e6 | 2.04e6 | inactive |
| Clamp (GeneID 35445) | DRSC21682 | 1.03e6 | 1.23e6 | 1.52e6 | 1.20e6 | inactive |
| Clamp (GeneID 35445) | DRSC29935 | 5.79e5 | 5.66e5 | 9.97e5 | 7.99e5 | inactive |
| Tailor (GeneID 40847) | DRSC12526 | 46037 | 37533 | 1.39e6 | 8.87e5 | inactive |
| CG9743 (GeneID 43593) | DRSC16552 | 1.52e5 | 93053 | 1.97e6 | 2.51e6 | inactive |
| CG9743 (GeneID 43593) | DRSC28943 | 7.10e5 | 7.77e5 | 1.40e6 | 1.51e6 | inactive |
| x16 (GeneID 33967) | DRSC00960 | 2.23e5 | 1.67e5 | 9.03e5 | 7.69e5 | inactive |
| x16 (GeneID 33967) | DRSC03638 | 5.38e5 | 7.99e5 | 1.51e6 | 2.02e6 | inactive |
| x16 (GeneID 33967) | DRSC23865 | 4.45e5 | 3.81e5 | 1.19e6 | 6.68e5 | inactive |
| Cyp9c1 (GeneID 37941) | DRSC04607 | 7.42e5 | 7.63e5 | 9.62e5 | 1.08e6 | inactive |
| mRpL27 (GeneID 318825) | DRSC22568 | 6.49e5 | 6.43e5 | 1.26e6 | 1.15e6 | inactive |
| CG5381 (GeneID 34389) | DRSC02852 | 2.20e5 | 2.53e5 | 1.13e6 | 1.53e6 | inactive |
| CG3277 (GeneID 33543) | DRSC00588 | 1.21e5 | 1.03e5 | 1.04e6 | 9.39e5 | inactive |
| CG3277 (GeneID 33543) | DRSC36832 | – | – | – | – | inactive |
| CG3277 (GeneID 33543) | DRSC36833 | – | – | – | – | inactive |
| Jhbp13 (GeneID 34729) | DRSC02913 | 2.10e5 | 2.97e5 | 1.32e6 | 1.72e6 | inactive |
| CG4218 (GeneID 34848) | DRSC01939 | 1.61e5 | 1.48e5 | 1.79e6 | 1.64e6 | inactive |
| CG4218 (GeneID 34848) | DRSC27814 | 1.57e5 | 2.56e5 | 4.30e5 | 7.45e5 | inactive |
| CG15706 (GeneID 36799) | DRSC06577 | 33951 | 34192 | 5.19e5 | 5.19e5 | inactive |
| Or45b (GeneID 35980) | DRSC07488 | 3.75e5 | 2.22e5 | 1.84e6 | 1.75e6 | inactive |
| CG13747 (GeneID 35907) | DRSC06418 | 3.90e5 | 3.52e5 | 2.14e6 | 2.42e6 | inactive |
| CG33494 (GeneID 2768686) | DRSC13715 | 2.21e5 | 2.48e5 | 5.97e5 | 7.56e5 | inactive |
| sesB (GeneID 32007) | DRSC20371 | 3.10e5 | 3.34e5 | 3.34e6 | 3.19e6 | inactive |
| sesB (GeneID 32007) | DRSC29874 | 1.09e6 | 1.24e6 | 1.29e6 | 1.91e6 | inactive |
| BRWD3 (GeneID 42898) | DRSC15369 | 69605 | 53539 | 2.35e5 | 1.97e5 | inactive |
| BRWD3 (GeneID 42898) | DRSC16032 | 2.36e5 | 2.71e5 | 1.04e6 | 1.14e6 | inactive |
| CG11378 (GeneID 31060) | DRSC18627 | 2.69e5 | 3.13e5 | 3.59e6 | 2.91e6 | inactive |
| CG11378 (GeneID 31060) | DRSC29720 | 5.56e5 | 4.40e5 | 1.39e6 | 1.36e6 | inactive |
| NtR (GeneID 43935) | DRSC04628 | 2.96e5 | 4.36e5 | 2.04e6 | 1.33e6 | inactive |
| NtR (GeneID 43935) | DRSC27686 | 1.54e5 | 2.36e5 | 7.03e5 | 8.56e5 | inactive |
| Rac1 (GeneID 38146) | DRSC08688 | 83636 | 66629 | 7.22e5 | 9.85e5 | inactive |
| Rac1 (GeneID 38146) | DRSC25131 | 4.84e5 | 3.68e5 | 5.16e5 | 4.60e5 | inactive |
| slam (GeneID 33890) | DRSC03240 | 2.11e5 | 1.61e5 | 1.36e6 | 1.07e6 | inactive |
| CG18557 (GeneID 33483) | DRSC38932 | 7.71e5 | 6.24e5 | 1.98e6 | 1.28e6 | inactive |
| CG2663 (GeneID 40649) | DRSC12314 | 69651 | 47103 | 7.88e5 | 8.18e5 | inactive |
| CG2663 (GeneID 40649) | DRSC28701 | 6.13e5 | 6.03e5 | 1.33e6 | 1.40e6 | inactive |
| CG2145 (GeneID 32027) | DRSC19835 | 1.04e5 | 1.18e5 | 8.08e5 | 6.46e5 | inactive |
| CG2145 (GeneID 32027) | DRSC27564 | 3.46e5 | 2.49e5 | 7.52e5 | 8.44e5 | inactive |
| CG3817 (GeneID 41805) | DRSC15515 | 48944 | 1.35e5 | 4.12e5 | 4.57e5 | inactive |
| CG3817 (GeneID 41805) | DRSC27548 | 2.32e5 | 2.20e5 | 8.27e5 | 9.19e5 | inactive |
| Mps1 (GeneID 42126) | DRSC16273 | 74157 | 82235 | 5.21e5 | 8.86e5 | inactive |
| Mps1 (GeneID 42126) | DRSC36934 | – | – | – | – | inactive |
| Mps1 (GeneID 42126) | DRSC36935 | – | – | – | – | inactive |
| Cyp6a18 (GeneID 43304) | DRSC16632 | 3.76e5 | 2.84e5 | 2.77e6 | 3.08e6 | inactive |
| CG7006 (GeneID 42963) | DRSC16169 | 83063 | 69858 | 4.84e5 | 5.53e5 | inactive |
| ITP (GeneID 37921) | DRSC04222 | 2.63e5 | 3.72e5 | 1.65e6 | 1.78e6 | inactive |
| Rab5 (GeneID 33418) | DRSC00777 | 1.15e6 | 8.60e5 | 3.36e6 | 1.82e6 | inactive |
| Rab5 (GeneID 33418) | DRSC23710 | 7.72e5 | 6.96e5 | 5.19e5 | 5.44e5 | inactive |
